# The full ranking holds about 33,000 sequences; the median of “E-score (-0.5 to 0.5)” is about -0.015, and the highest 2% start at about 0.3. The list shows a part of the results.
# Target: T1, Abf1 (UniProt P14164)
# T1 sequence: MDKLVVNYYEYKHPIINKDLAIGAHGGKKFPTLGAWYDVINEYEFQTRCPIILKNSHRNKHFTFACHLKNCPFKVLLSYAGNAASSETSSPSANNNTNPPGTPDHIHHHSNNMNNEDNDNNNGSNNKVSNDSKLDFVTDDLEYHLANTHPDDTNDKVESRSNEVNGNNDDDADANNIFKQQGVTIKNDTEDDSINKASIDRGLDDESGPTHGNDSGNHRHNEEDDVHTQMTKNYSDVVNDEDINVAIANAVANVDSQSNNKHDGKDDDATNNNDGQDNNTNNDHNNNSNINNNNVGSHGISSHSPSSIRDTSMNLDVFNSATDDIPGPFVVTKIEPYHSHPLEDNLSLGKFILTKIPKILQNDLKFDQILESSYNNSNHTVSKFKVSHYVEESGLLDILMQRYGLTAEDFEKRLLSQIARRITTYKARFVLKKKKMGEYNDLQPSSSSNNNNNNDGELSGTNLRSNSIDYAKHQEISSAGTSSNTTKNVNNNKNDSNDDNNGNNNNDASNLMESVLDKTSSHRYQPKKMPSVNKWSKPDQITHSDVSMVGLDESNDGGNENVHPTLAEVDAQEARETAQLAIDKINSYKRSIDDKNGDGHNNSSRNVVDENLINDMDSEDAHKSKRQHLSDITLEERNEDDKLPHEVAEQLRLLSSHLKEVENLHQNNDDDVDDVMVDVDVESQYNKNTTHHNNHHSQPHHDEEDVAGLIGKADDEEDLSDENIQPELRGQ
# Experiment: PBM E-score (8-mer binding enrichment) (E-score (-0.5 to 0.5)); higher = stronger / more preferred TF binding
# Details: protein concentration: 200 nM; construct: GST-full length
# How it was run: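 For each ungapped eight-base word taken together with its reverse complement, the Universal PBM Analysis Suite assigned an E-score. Binding data came from GST-tagged yeast transcription factors, applied at about 100-200 nM, on universal all-10-mer Agilent arrays made double-stranded by primer extension. Fluorescent anti-GST marked bound protein, and scans were normalised with masliner.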
row,Sequence,PBM E-score
1,CGGCCCAG,-0.265
2,CCCGTCCG,-0.292
3,CCAATCCA,-0.185
4,ACTCCAGC,-0.129
5,AAGATGCT,0.0839
6,GCGACAGC,-0.179
7,AAGAATGA,0.293
8,GCGGCGTA,-0.102
9,AACCCCAC,-0.204
10,GACTCCCC,-0.221
11,AACCCCAT,-0.372
12,CAAGCACG,0.126
13,ACATTGTG,-0.132
14,ACATGGCA,0.039
15,AGAGGGGG,-0.35
16,AAACACGG,0.172
17,ACGCGAAG,0.0352
18,CGTTTCGA,-0.0431
19,ACGTGGCC,0.0605
20,ATTAATTA,0.132
21,AGGAGTGA,0.155
22,AAACTACC,0.0231
23,CAACCCGA,-0.0131
24,AACTCTGC,-0.318
25,GGAAACTA,-0.00225

# Looked up above.
# For PBM E-score, CAACCCGA has -0.0131
# For PBM E-score, AAACACGG has 0.172

# Later entries:

row,Sequence,PBM E-score
1,ATTTCGCG,0.0883
2,TACCTCTA,0.047
3,CTCCGAGA,0.0106
4,CAGGGAGA,-0.058
5,ACGACGGA,0.251
6,AAGTTGGG,-0.0337
7,TCATGCGA,0.154
8,ATTTCAAC,-0.0333
9,CGAGGCAG,-0.0274
10,ATCTGAGC,0.133
11,CTGAGATC,-0.0186
12,AGAAGGAC,-0.182
13,ATTCGTTC,0.171
14,GAAAACTC,-0.0772
15,ACCAGGTG,-0.137
16,GAGACCCA,-0.219
17,AACTAAGC,0.105
18,GAAAATAA,0.165
19,CATTGCTC,-0.0812
20,CAGTCTTA,-0.12
21,GGCCCGCC,-0.339
22,GTTCATTA,-0.0182
23,GTTTAGAA,0.163
24,AAGTCGAG,-0.00544
25,CCACAGGG,-0.191

row,Sequence,PBM E-score
1,CTGGCGAA,-0.0469
2,AGTTGAGC,-0.142
3,AGAAGGTA,0.0439
4,CGTGGTCC,0.065
5,CCTATGAC,0.0281
6,CGATGTCC,0.115
7,ATCAGTGA,0.2
8,GGAGTTAA,-0.134
9,AAAATGCT,0.133
10,AGGTTCTA,-0.0694
11,ATCCACGA,0.199
12,CAAGCAGC,-0.139
13,GAGGGGGC,-0.346
14,ATACGCCC,-0.247
15,CATTACTA,0.0574
16,ATGTTCAG,-0.076
17,ATAAGAAG,0.166
18,ACAAGAGT,-0.0721
19,CACTGTAA,0.141
20,CTGACACA,-0.208
21,GCTCCGGA,-0.236
22,AGCAACAG,0.0864
23,CGCGTCTA,-0.0425
24,TGCTTACA,0.00935
25,ACGTATTG,0.0716

row,Sequence,PBM E-score
1,GCACGGAC,0.208
2,ACGGTCTA,0.112
3,ACGGATCG,-0.0271
4,ATGAGACG,0.0508
5,TGAGCCCA,-0.105
6,ACAGAGGA,-0.0869
7,AGACCCCA,-0.0171
8,ACCGGAGG,-0.222
9,GATCAGCA,0.189
10,TAAATCAA,0.148
11,AGACCCGC,-0.0507
12,AGGATCGG,-0.214
13,AATAAAGC,0.0706
14,CAGTTCGC,-0.0717
15,GAAATCAA,0.0471
16,CGATAGAA,0.00215
17,CTTGGCGC,0.0227
18,CATATTGG,0.0318
19,AGCCAATA,-0.125
20,CACTCTGG,-0.0609
21,CACTCCCC,-0.188
22,CCATGGGG,-0.095
23,GGAATCTA,0.0145
24,CGAGGTGA,0.129
25,GAGAAGGC,-0.225

row,Sequence,PBM E-score
1,AAATAGTC,0.00163
2,CGTGAGTA,0.155
3,AAGCTCGC,-0.0978
4,GACCGCCA,-0.188
5,AACTTGGG,-0.238
6,CGTACTTA,0.236
7,CACCACCC,-0.104
8,CAACCGCA,-0.0837
9,ATGATCTC,0.296
10,AACTTCCA,-0.097
11,AATCCATT,0.00817
12,AGGCCGAT,-0.057
13,AGCGCTGG,-0.102
14,CAACTAGG,0.0136
15,GATGCAGC,-0.132
16,ATACATCC,-0.115
17,CAATTTCC,-0.0512
18,CCGTCTTC,0.0806
19,AATTGCCT,-0.00284
20,ACGGAGAA,0.117
21,AGACCCAT,-0.134
22,CTACCTGA,-0.192
23,CACCAAAG,-0.0312
24,CTCCCTGA,-0.205
25,AAGCTAAC,0.0254

row,Sequence,PBM E-score
1,ATATTGAG,0.0975
2,GCAGCAAC,0.06
3,TATGTCCA,-0.0663
4,ATGAACCC,-0.0465
5,CACTTTGC,0.137
6,CGGGAGCA,-0.228
7,GGTGCAGA,-0.244
8,ACGCTTCT,-0.0563
9,CCCGTACA,0.263
10,CAAATATC,0.275
11,GTACCAGA,0.033
12,GATAGCTA,-0.0725
13,CGACTGAC,0.0955
14,ATCACTCC,0.345
15,CACGCCCC,-0.136
16,ATACGCAG,-0.00996
17,TGGTTTAA,0.196
18,ATCTCGTG,0.113
19,ATTCCCCC,-0.197
20,CAATCTTC,0.135
21,GCCAACAC,0.102
22,GAGCTGGA,-0.284
23,GTGCAGTA,-0.198
24,ATCTCTGC,0.0352
25,AGATAGCG,0.0758

row,Sequence,PBM E-score
1,AACGACCG,-0.0233
2,AGTAAATA,0.103
3,CTGGGCCC,-0.174
4,CTACGAGC,0.0233
5,CCTAGTCG,-0.077
6,ATATTTTC,0.0192
7,ACGCTGTC,-0.0257
8,AAGGCCTC,-0.0142
9,ACTCAAGA,-0.102
10,CTGCACAC,-0.0257
11,CGACGCTC,-0.0203
12,GTTTGCAA,0.161
13,AGGTTGTC,-0.0329
14,ACACTAGT,-0.0582
15,AATGCCCC,-0.14
16,CGATTCGA,0.102
17,CCGCGCAA,-0.0625
18,AACAATGT,-0.0137
19,AACCTGTG,-0.0933
20,AATTGGGA,-0.0214
21,TAACGCTA,-0.0187
22,ATTTACTG,0.0186

# Five entries from above, with bars between the fields.
row | Sequence | PBM E-score
14 | ACACTAGT | -0.0582
15 | AATGCCCC | -0.14
16 | CGATTCGA | 0.102
17 | CCGCGCAA | -0.0625
18 | AACAATGT | -0.0137

# — the supplement of paper PMC3334620
